PubChem BioAssay AID743121 | NCATS – 2013

Screen: 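Genes whose silencing strengthens cell killing by camptothecin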 (primary screen)
Cells: MDA-MB-231 cells, a human breast cancer line
Reagent: single siRNA against human genes, 20 nM siRNA (0.8 pmol per well)
Time to read-out: 120 h (drug added 48 h after transfection, read 72 h later)
Conditions: camptothecin 20 nM (about EC30) for 72 h; vehicle 0.1% DMSO in parallel plates
Read-out: 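Cell viability by ATP luminescence (CellTiter-Glo) as % of non-targeting siRNA wells, and the log2 ratio of viability without drug over viability with camptothecin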
Reading the numbers: log2 vehicle/camptothecin viability: higher = stronger sensitisation to camptothecin; viability with camptothecin: higher = more viable cells
Hit rule: 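Active genes have an RSA gene-level p-value below 0.001, computed from the ratios of their separate siRNAs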
In all, the deposit lists about 26,000 reagents; below is an unselected part. In the full data, 167 (0.63%) got an active call. 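Calls are per gene from RSA p-values that are not deposited; an individual active-marked siRNA can sensitise only weakly.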 Further read-outs or replicates are left out here. Reagent sequences are not shown.

| target gene | PubChem SID | log2 vehicle/camptothecin viability | viability with camptothecin (% of control) | activity call |
| --- | --- | --- | --- | --- |
| FSHB (GeneID 2488) | SID164365403 | -0.49 | 52.9 | inactive |
| FSHB (GeneID 2488) | SID164365405 | -0.163 | 106 | inactive |
| FSHB (GeneID 2488) | SID164365409 | -0.258 | 105 | inactive |
| PLAUR (GeneID 5329) | SID164381057 | -0.221 | 88.7 | inactive |
| PLAUR (GeneID 5329) | SID164381062 | 0.11 | 58.2 | inactive |
| PLAUR (GeneID 5329) | SID164381063 | 0.0223 | 88.2 | inactive |
| PLAUR (GeneID 5329) | SID164381065 | 0.0745 | 40.3 | inactive |
| TRIM36 (GeneID 55521) | SID164485004 | 0.232 | 76 | inactive |
| TRIM36 (GeneID 55521) | SID164485005 | -0.0327 | 81.9 | inactive |
| TRIM36 (GeneID 55521) | SID164485006 | -0.232 | 100 | inactive |
| TRIM36 (GeneID 55521) | SID164485012 | 0.0742 | 103 | inactive |
| TRIM36 (GeneID 55521) | SID164485013 | -0.188 | 80.6 | inactive |
| TRIM36 (GeneID 55521) | SID164485014 | -0.127 | 107 | inactive |
| TRIM36 (GeneID 55521) | SID164485016 | -0.15 | 118 | inactive |
| TRIM36 (GeneID 55521) | SID164485022 | 0.324 | 47.8 | inactive |
| CPXM1 (GeneID 56265) | SID164489372 | -0.433 | 39.1 | inactive |
| CPXM1 (GeneID 56265) | SID164489376 | -0.455 | 83.3 | inactive |
| CPXM1 (GeneID 56265) | SID164489377 | -0.0438 | 51 | inactive |
| CPXM1 (GeneID 56265) | SID164489378 | 0.186 | 33.2 | inactive |
| KAT5 (GeneID 10524) | SID164411659 | -0.389 | 65.1 | inactive |
| KAT5 (GeneID 10524) | SID164411662 | -0.602 | 86.1 | inactive |
| KAT5 (GeneID 10524) | SID164411665 | -0.419 | 60.1 | inactive |
| KCNJ14 (GeneID 3770) | SID164372510 | -0.298 | 59.5 | inactive |
| KCNJ14 (GeneID 3770) | SID164372511 | -0.0518 | 69.9 | inactive |
| KCNJ14 (GeneID 3770) | SID164372512 | -0.0891 | 105 | inactive |
| KCNJ14 (GeneID 3770) | SID164372513 | -0.0535 | 106 | inactive |
| METTL13 (GeneID 51603) | SID164474659 | -0.175 | 68.8 | inactive |
| METTL13 (GeneID 51603) | SID164474660 | -0.89 | 31.7 | inactive |
| METTL13 (GeneID 51603) | SID164474663 | -0.0694 | 100 | inactive |
| METTL13 (GeneID 51603) | SID164474665 | 0.124 | 26.8 | inactive |

Reprinted from the listing, 3 entries:
| target gene | PubChem SID | log2 vehicle/camptothecin viability | viability with camptothecin (% of control) | activity call |
| --- | --- | --- | --- | --- |
| PLAUR (GeneID 5329) | SID164381057 | -0.221 | 88.7 | inactive |
| PLAUR (GeneID 5329) | SID164381062 | 0.11 | 58.2 | inactive |
| PLAUR (GeneID 5329) | SID164381063 | 0.0223 | 88.2 | inactive |
